# Results of single-concentration screens

By UniProt entry, the sequences of proteins in these tests, tags left out.
UniProt P9WPC5, whole entry: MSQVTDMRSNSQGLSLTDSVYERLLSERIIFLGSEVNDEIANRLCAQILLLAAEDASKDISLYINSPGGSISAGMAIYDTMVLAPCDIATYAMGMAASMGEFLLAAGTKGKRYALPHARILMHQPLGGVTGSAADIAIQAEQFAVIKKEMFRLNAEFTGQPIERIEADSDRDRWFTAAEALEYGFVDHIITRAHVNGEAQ
UniProt P9WPC3, whole entry partner: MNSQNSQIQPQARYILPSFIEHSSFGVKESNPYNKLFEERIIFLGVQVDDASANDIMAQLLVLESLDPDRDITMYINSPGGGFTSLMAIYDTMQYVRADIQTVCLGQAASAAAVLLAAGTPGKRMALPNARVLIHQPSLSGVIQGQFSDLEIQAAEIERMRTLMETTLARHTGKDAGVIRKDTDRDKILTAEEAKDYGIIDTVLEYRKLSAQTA
UniProt I6X8D2, whole entry: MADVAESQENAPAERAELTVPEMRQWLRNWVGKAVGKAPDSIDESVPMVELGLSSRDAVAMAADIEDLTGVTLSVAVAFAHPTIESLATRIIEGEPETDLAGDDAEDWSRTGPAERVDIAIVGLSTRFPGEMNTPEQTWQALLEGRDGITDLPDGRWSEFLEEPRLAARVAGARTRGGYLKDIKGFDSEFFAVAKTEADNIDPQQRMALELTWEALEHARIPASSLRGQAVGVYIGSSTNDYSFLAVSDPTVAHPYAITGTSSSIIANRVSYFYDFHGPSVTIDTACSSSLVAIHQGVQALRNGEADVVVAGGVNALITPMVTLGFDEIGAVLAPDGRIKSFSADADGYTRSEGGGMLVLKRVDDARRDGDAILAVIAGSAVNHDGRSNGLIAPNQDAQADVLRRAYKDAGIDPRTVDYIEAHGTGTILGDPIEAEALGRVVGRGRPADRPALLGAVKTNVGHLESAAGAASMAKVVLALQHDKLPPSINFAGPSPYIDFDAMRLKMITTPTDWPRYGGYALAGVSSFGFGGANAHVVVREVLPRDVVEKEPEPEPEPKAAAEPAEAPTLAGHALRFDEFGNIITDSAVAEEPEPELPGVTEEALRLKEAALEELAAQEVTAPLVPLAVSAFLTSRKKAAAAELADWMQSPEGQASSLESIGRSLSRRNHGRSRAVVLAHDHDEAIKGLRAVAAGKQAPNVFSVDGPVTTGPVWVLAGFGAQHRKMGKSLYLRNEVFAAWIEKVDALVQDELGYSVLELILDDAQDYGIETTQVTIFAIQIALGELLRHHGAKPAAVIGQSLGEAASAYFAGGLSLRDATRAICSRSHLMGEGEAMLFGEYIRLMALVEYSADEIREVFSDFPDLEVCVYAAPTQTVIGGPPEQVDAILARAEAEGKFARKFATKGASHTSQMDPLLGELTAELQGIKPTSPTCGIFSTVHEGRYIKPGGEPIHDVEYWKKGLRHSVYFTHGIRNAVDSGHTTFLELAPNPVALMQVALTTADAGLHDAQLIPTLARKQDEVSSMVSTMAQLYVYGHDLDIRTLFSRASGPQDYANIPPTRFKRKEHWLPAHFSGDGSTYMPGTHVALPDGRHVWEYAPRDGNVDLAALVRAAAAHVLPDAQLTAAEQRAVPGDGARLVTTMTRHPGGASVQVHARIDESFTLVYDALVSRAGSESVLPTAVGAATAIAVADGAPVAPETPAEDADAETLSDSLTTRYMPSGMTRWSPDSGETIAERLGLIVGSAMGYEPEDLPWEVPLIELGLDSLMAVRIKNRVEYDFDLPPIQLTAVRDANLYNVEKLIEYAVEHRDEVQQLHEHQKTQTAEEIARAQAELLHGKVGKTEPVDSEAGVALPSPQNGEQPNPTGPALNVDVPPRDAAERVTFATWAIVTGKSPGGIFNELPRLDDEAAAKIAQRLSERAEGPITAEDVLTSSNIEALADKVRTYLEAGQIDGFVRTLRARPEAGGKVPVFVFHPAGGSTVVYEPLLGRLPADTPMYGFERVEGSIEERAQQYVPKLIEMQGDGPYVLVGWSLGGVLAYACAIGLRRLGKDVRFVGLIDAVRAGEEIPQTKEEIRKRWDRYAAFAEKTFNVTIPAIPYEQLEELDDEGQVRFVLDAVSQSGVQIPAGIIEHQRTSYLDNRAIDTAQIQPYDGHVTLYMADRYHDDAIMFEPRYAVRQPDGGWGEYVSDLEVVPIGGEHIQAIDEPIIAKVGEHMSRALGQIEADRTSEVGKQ

From ChEMBL document CHEMBL3988442, “University of Dundee, Small-Polar-MMV Screening Library” (2021).

Values are the deposited “Percent Effect”, in %. How 0% and 100% were set is not recorded. Most values in the screen are low, and negative values occur. This is an unselected part of the compounds tested.

ClpP1P2: 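ClpP1P2, Mycobacterium tuberculosis (UniProt P9WPC5 and UniProt P9WPC3). Protease assay of ClpP1P2, read by the AMC dye that it sets free. Tested at 50 µM. Higher reads as stronger inhibition, judged from the few compounds that gave an IC50. Most other retested compounds had strongly negative values. Size under these conditions: about 69,000 compounds, about 10 of them at 50% or above in at least one test.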
Pks13 thioesterase: 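Enzyme assay of the thioesterase domain of polyketide synthase 13; the read-out is not stated. Target: Polyketide synthase Pks13, Mycobacterium tuberculosis (UniProt I6X8D2). Concentration: 30 µM. Higher reads as stronger inhibition (inferred from which compounds were picked for retests). About 67,000 compounds were tested under these conditions; 0.46% (about 300) showed 50% or more at least once.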

| # | compound | ClpP1P2 | Pks13 thioesterase |
|---|---|---|---|
| 1 | `CC1COc2ccccc2N1C(=O)c1cscn1` (centres unmarked) | 2.536% | -21.17% |
| 2 | `Cn1cc(-c2ncnc3c2CCN(C(=O)N2CCOCC2)CC3)cn1` | -9.357% | -11.45% |
| 3 | `CCNc1nc(C)c(C(=O)N(C)Cc2noc(C)n2)s1` | -3.196% | 1.925% |
| 4 | `CC(=O)N(Cc1ncc(C(C)C)o1)C1CCN(CCC#N)C1` (centres unmarked) | -36.87% | 5.692% |
| 5 | `C1CCC(c2nc3c(c(N4CC(N5CCOCC5)C4)n2)CCNCC3)C1` | 1.746% | -1.314% |
| 6 | `CC(=O)NCc1ccc(-c2ccccc2C(=O)O)cn1` | -26.61% | -12.34% |
| 7 | `O=C1Nc2ccccc2/C1=C1\CCCCCN1` | 1.648% | 10.9% |
| 8 | `Cc1cccc(CN2CCC3(CC2)CN(c2cnn(C)c2)C(=O)CO3)n1` | 11.25% | 5.685% |
| 9 | `CN(C)CCO[C@@H]1CC[C@H]2[C@H]1OCCN2C(=O)c1ccccc1F` | 11.63% | -24.61% |
| 10 | `CN1CCN(c2ccccc2CNC(=O)Cc2cccc(F)c2)CC1` | 3.281% | -21.16% |
| 11 | `O=C(CCN1C(=O)CCC1=O)Nc1ccc(Cl)cc1` | 0.667% | -30.65% |
| 12 | `CCn1cc(CN2CCCN(C(=O)c3cccn3C)CC2)cn1` | -34.03% | -2.018% |
| 13 | `CCNC(=O)NC(=O)CN1CCOC(c2cccc(Br)c2)C1` (centres unmarked) | 5.813% | -44.71% |
| 14 | `CC(C)c1sc(Br)nc1C(=O)NCc1ccncc1` | -6.644% | -21.97% |
| 15 | `CN(C)c1ccc(CN2CCC(C(O)Cc3ccccc3)CC2)cn1` (centres unmarked) | -5.088% | -10.59% |
| 16 | `CC(C)C1SCC(=O)Nc2c1cnn2C(C)C` (centres unmarked) | -19.97% | -21.17% |
| 17 | `O=C(Cc1ccccn1)N1CCC2(CCCN(CC3CCOCC3)C2)C1` (centres unmarked) | -12.33% | 7.782% |
| 18 | `O=C(N1CCOCC1)N1CC[C@@](O)(c2ccccc2)[C@H]2CCCC[C@@H]21` | -7.325% | -4.968% |
| 19 | `COc1ccc(-c2nc(CCNC(=O)NCC3CCOC3)co2)cc1` (centres unmarked) | -3.692% | 5.129% |
| 20 | `COc1ncccc1C(=O)N1CCCC1c1c(C)n[nH]c1C` (centres unmarked) | -4.657% | -20.26% |
| 21 | `CN1CCN(Cc2cccc(NCc3ncc[nH]3)c2)CC1` | 2.188% | -27.77% |
| 22 | `COc1ccccc1OCC(=O)Nc1ncccc1Cl` | -11.41% | -10.56% |
| 23 | `CS(=O)(=O)NC(=O)c1nnn(-c2cccc(F)c2)c1C1CC1` | -31% | -10.43% |
| 24 | `Cc1ccccc1SCC(=O)Nn1cnnc1` | -2.562% | -19.29% |
| 25 | `O=C(NCCC1CCCCO1)c1cc(COc2cncc(Cl)c2)on1` (centres unmarked) | -1.112% | 13.98% |
| 26 | `Cc1cc(C)n(CC2(CNC(=O)C(c3ccccc3C)N(C)C)CC2)n1` (centres unmarked) | 5.436% | -37.06% |
| 27 | `Cc1occc1C(=O)N1CCCC2(CCN(c3ccccc3)C2=O)C1` (centres unmarked) | 10.12% | -24.62% |
| 28 | `COC(=O)N1CCc2ccccc2C1C(=O)NCC(F)(F)F` (centres unmarked) | -6.633% | -26.17% |
| 29 | `CCCc1cc(N2CCC(N[C@H]3CC[C@H](O)CC3)CC2)nc(C)n1` | -19.63% | -4.156% |
| 30 | `CCc1cc(=O)[nH]c(NC2CCN(S(=O)(=O)c3ccccc3)CC2)n1` | -13.32% | -5.16% |
| 31 | `Cc1ccnc(C(NC(=O)c2ncoc2C)C2CC2)n1` (centres unmarked) | 2.938% | 13.74% |
| 32 | `CC(Cn1cncc1-c1cnn(C2CCCCC2)c1)N1CCCCC1` (centres unmarked) | 4.388% | -23.63% |
| 33 | `COc1ccc(C(=O)CCc2nc(C3CC3)no2)cc1` | -9.471% | -0.8379% |
| 34 | `Cc1ccc(-c2nnc(CCC(=O)NCc3cn(C)nc3C)o2)s1` | 1.341% | 6.678% |
| 35 | `Cc1ccc(-c2nc(CN3CCC(C(=O)N(C)C)CC3)cs2)o1` | 16.99% | -9.886% |
| 36 | `Cc1ncccc1C(=O)Nc1cccc(Cn2ccccc2=O)c1` | 4.372% | -1.91% |
| 37 | `Cc1ncc2c(n1)CN(Cc1ncc(C(C)(C)C)o1)CC2` | 1.181% | -4.182% |
| 38 | `COc1cccc2c1OCC(C(=O)N1CCN(S(C)(=O)=O)CC1)C2` (centres unmarked) | -11.75% | -11.47% |
| 39 | `CC(C)(C)c1cc(C(=O)NCCN2CCCS2(=O)=O)[nH]n1` | -23.18% | -18.48% |
| 40 | `O=S(=O)(c1ccccc1)N1CCOCC(Cc2cccnc2)C1` (centres unmarked) | -115.4% | 6.337% |
| 41 | `COc1ccc(CC(C)(O)CNC(=O)NCc2cccs2)cc1` (centres unmarked) | 5.095% | -17.91% |
| 42 | `O=C(NCCc1ccncc1)[C@@H]1CC[C@@H]2[C@@H](CCN2Cc2ccco2)O1` | -14.26% | -20.21% |
| 43 | `CCc1noc(C)c1C(=O)N1CCCC1Cn1cccn1` (centres unmarked) | 3.015% | -7.019% |
| 44 | `Cc1cccc(CNC[C@H]2COCc3nc4cccnc4n32)n1` | -25.75% | -0.2162% |
| 45 | `Cc1nc(COCc2nc3c(o2)CN(C(=O)c2ccc[nH]2)C3)cs1` | 6.657% | -22.29% |
| 46 | `Cc1cc(-c2nn(C)c(Cl)c2CN2CCN(C)C(C(=O)O)C2)no1` (centres unmarked) | -4.687% | -11.52% |
| 47 | `CC(=O)OCC1CCCCN1C(=O)c1ccc(Cn2ccnc2)o1` (centres unmarked) | 11.36% | -27.01% |
| 48 | `CN(Cc1c(F)cccc1Cl)C(=O)CN(C)C1CCc2ccccc21` (centres unmarked) | 5.494% | 3.321% |
| 49 | `CC(C)OCCOCC(O)CN(C)C(=O)Nc1ccc(F)cc1Cl` (centres unmarked) | -7.478% | -13.15% |
| 50 | `O=C(Cc1cccc(F)c1)N1CCc2ncnc(N3CCCC3)c2CC1` | 0.1415% | -1.248% |
| 51 | `O=C(NCCN1CCCCC1)c1scnc1Cl` | -1.35% | -9.38% |
| 52 | `O=C(Nc1cc(C(F)(F)F)c[nH]c1=O)c1ccco1` | 8.622% | -0.4879% |
| 53 | `O=S(=O)(C1CC1)N1CCc2ncnc(-c3ccsc3)c2CC1` | -0.6602% | -29.28% |
| 54 | `O=C(COc1coc(CN2CCCCC2)cc1=O)Nc1ccc(Cl)cc1` | 3.199% | -17.86% |
| 55 | `Cc1nccc([C@H]2C[C@@H]3CCN(C(=O)c4c(C)noc4C)C[C@H]3O2)n1` | 2.283% | -10.18% |
| 56 | `COCC1CC2(CCN(Cc3ccccn3)CC2)CN1C(C)C` (centres unmarked) | -2.243% | -9.356% |
| 57 | `COCCCC(=O)Nc1cc(Cl)c(Cl)cn1` | -1.715% | 4.89% |
| 58 | `O=C1COc2ccc(C(=O)NS(=O)(=O)c3cc(F)ccc3F)cc2N1` | -1.88% | -0.6989% |
| 59 | `O=C(O)c1ccccc1-n1cnc(CN2CCCCCC2)c1` | -11.79% | 18.89% |
| 60 | `Cn1cc(CN2CCc3c(cnc(-c4ccccc4)c3C(=O)O)C2)cn1` | 2.8% | -29.59% |
| 61 | `CCc1noc(C)c1C(=O)NCCCC(CC)(CC)C1OCCO1` | -18.16% | -3.638% |
| 62 | `c1ccc(CNc2cc(C3CCCNC3)ccn2)nc1` (centres unmarked) | 3.897% | -14.36% |
| 63 | `Cc1cnn(CC2CCCN2C(=O)c2cc3ccccc3[nH]2)c1` (centres unmarked) | 8.546% | -15.22% |
| 64 | `CC(C)CC(=O)N(C)Cc1nc(C(F)(F)F)cs1` | -7.453% | -0.8646% |
| 65 | `Clc1ccc(-c2ccc(C3CNCCO3)nc2)cc1` (centres unmarked) | -1.175% | 20.14% |
| 66 | `Cc1cc(C(=O)N2CCc3ncnc(-c4cnn(C)c4)c3CC2)c(C)o1` | -5.775% | -5.846% |
| 67 | `N#Cc1cn(C2CC2)c(=O)n(Cc2cc(-c3cccs3)on2)c1=O` | -2.303% | -17.65% |
| 68 | `COc1ccnc(CN(C)C(=O)CSc2nnc(N)s2)c1` | -6.446% | -16.88% |
| 69 | `COc1ccc(C(=O)N2CCC(Nc3cccnn3)CC2)c(OC)c1` | -3.721% | -9.102% |
| 70 | `O=S(=O)(c1ccccc1)N1CCC2(CCCN2Cc2ccccc2Cl)C1` (centres unmarked) | 23.46% | 9.464% |
| 71 | `COCc1nc(CN(CC(N)=O)C(C)C)cs1` | -15.29% | 1.123% |
| 72 | `Cc1sc2nc(CCN)nc(N3CCC(N4CCCC4)CC3)c2c1C` | -7.559% | -7.171% |
| 73 | `Cc1cc(C(=O)N2C[C@@H]3CCCO[C@@H]3[C@H](N(C)C(C)C)C2)c(C)[nH]1` | 13.2% | -13.42% |

For reference, 9 entries once more:

| compound | ClpP1P2 | Pks13 thioesterase |
|---|---|---|
| `O=C(Cc1ccccn1)N1CCC2(CCCN(CC3CCOCC3)C2)C1` (centres unmarked) | -12.33% | 7.782% |
| `O=C(NCCN1CCCCC1)c1scnc1Cl` | -1.35% | -9.38% |
| `COc1ccccc1OCC(=O)Nc1ncccc1Cl` | -11.41% | -10.56% |
| `Cc1cc(-c2nn(C)c(Cl)c2CN2CCN(C)C(C(=O)O)C2)no1` (centres unmarked) | -4.687% | -11.52% |
| `O=C1Nc2ccccc2/C1=C1\CCCCCN1` | 1.648% | 10.9% |
| `CC(Cn1cncc1-c1cnn(C2CCCCC2)c1)N1CCCCC1` (centres unmarked) | 4.388% | -23.63% |
| `Cc1sc2nc(CCN)nc(N3CCC(N4CCCC4)CC3)c2c1C` | -7.559% | -7.171% |
| `C1CCC(c2nc3c(c(N4CC(N5CCOCC5)C4)n2)CCNCC3)C1` | 1.746% | -1.314% |
| `COc1cccc2c1OCC(C(=O)N1CCN(S(C)(=O)=O)CC1)C2` (centres unmarked) | -11.75% | -11.47% |